Data reported in the supplement of paper PMC10849652.
This is one part of the list.

The chains behind the UniProt entries cited, without tags or fusion partners. Where a name states a change or a piece, a line headed by the entry shows the natural chain unless it says otherwise.
UniProt Q13506: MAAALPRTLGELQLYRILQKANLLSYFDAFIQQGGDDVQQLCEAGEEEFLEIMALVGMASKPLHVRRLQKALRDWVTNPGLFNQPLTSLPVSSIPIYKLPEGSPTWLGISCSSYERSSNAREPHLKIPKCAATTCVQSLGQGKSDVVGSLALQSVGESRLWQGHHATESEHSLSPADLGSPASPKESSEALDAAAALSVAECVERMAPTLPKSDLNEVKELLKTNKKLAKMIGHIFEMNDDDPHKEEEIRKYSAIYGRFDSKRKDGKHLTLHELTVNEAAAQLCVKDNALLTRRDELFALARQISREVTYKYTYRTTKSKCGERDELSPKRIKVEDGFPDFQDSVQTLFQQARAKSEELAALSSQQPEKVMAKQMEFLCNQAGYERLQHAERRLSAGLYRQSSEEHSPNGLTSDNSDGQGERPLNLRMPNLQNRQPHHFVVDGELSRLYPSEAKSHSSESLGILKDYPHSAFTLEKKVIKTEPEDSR
UniProt Q69YL0: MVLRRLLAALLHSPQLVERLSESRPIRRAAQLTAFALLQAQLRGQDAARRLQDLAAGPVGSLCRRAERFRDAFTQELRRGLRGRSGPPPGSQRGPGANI
UniProt Q4G0N4: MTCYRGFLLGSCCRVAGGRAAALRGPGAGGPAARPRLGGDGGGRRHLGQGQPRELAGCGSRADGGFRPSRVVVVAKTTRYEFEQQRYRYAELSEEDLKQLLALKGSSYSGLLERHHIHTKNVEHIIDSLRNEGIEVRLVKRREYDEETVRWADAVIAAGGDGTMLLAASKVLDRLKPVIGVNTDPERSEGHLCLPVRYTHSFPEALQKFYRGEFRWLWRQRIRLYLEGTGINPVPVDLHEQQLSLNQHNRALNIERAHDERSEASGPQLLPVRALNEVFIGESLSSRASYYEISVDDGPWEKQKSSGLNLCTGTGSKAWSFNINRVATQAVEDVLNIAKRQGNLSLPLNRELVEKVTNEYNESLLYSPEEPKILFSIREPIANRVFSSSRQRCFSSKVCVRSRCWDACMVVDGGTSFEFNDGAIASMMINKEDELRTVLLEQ
UniProt P84157: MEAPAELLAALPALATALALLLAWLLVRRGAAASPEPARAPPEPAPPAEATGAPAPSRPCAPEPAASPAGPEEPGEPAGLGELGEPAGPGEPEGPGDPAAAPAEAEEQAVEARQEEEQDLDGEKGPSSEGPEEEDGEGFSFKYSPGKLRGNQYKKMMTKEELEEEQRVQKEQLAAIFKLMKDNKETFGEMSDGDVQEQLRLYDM
UniProt G3V1V0: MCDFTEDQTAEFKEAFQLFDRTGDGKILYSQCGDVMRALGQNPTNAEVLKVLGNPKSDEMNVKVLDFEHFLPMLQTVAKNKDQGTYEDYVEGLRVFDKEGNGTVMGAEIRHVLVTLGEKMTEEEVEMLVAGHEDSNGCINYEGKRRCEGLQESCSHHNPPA
UniProt Q96BF6: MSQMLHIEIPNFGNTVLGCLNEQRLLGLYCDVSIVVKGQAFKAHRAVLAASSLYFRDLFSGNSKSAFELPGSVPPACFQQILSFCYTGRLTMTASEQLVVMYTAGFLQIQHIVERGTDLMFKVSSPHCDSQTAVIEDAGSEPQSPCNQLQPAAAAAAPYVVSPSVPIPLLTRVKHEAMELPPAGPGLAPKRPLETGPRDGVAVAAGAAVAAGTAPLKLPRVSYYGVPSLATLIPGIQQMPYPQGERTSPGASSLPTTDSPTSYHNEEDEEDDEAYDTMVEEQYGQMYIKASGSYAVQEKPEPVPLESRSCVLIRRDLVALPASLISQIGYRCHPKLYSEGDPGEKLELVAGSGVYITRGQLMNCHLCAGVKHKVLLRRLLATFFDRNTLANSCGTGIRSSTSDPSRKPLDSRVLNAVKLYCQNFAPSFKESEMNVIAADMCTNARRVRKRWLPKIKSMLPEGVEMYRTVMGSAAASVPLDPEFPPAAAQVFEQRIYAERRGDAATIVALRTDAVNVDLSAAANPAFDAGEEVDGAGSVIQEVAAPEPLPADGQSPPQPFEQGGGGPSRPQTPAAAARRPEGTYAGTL
UniProt P61599, whole entry, looked up: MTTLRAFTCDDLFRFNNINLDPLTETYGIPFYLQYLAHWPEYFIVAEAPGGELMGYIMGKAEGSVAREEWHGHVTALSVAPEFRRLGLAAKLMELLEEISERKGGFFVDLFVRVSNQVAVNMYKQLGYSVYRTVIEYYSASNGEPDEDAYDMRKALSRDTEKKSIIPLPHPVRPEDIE
UniProt Q14596: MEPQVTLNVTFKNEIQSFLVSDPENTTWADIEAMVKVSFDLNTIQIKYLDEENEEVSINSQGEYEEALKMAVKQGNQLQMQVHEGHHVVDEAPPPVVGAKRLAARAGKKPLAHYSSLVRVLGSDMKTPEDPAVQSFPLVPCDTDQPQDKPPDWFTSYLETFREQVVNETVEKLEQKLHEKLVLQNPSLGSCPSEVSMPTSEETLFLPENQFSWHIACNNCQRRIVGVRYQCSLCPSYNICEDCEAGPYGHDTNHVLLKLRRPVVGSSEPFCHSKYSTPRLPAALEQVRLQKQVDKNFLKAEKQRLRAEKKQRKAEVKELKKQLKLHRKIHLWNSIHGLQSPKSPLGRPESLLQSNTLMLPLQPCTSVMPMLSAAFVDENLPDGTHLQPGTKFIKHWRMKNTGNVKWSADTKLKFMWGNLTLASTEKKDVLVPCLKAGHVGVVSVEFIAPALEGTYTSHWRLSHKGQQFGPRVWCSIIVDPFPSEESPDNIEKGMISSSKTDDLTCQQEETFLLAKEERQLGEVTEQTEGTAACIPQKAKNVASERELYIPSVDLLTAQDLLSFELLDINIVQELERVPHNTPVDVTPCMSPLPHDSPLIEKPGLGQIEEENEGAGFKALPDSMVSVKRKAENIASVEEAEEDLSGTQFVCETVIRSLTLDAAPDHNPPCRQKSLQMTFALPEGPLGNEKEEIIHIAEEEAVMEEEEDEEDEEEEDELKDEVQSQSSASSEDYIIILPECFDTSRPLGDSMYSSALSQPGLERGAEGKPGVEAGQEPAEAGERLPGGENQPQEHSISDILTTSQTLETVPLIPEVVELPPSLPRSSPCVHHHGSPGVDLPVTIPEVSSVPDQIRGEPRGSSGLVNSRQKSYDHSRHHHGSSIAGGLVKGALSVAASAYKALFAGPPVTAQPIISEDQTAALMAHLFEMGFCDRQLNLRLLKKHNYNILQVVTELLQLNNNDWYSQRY

What was measured:
Assay in all cases: log2 fold change, soluble protein after heating vs DMSO (PISA); higher = thermal stabilisation; K562 lysate, 10 uM; active = over 0.2 and 3.5 SD of the protein, either way, in both replicates (recomputed)
alvocidib = compound: CN1CC[C@H](c2c(O)cc(O)c3c(=O)cc(-c4ccccc4Cl)oc23)[C@H](O)C1 [alvocidib]
How it was run: (§1)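 Following dounce homogenisation of K562 pellets in PBS pH 7.4 with 1 mM MgCl2, crude extract at 1 mg/mL protein was incubated for 30 min with 10 μM compound. Aliquots were then heated for 3 min over 48°C-58°C and pooled, NP-40 was added to 0.5% at 4°C, and soluble protein was recovered as the supernatant at 21,000xg for 90 min. Channel-sum-equalised TMTpro 16plex LC-MS/MS quantified this protein. Each value, from duplicates, is a log-two fold change in thermal stability relative to solvent controls.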

Tubastatin A = compound: CN1CCc2c(c3ccccc3n2Cc2ccc(C(=O)NO)cc2)C1 [Tubastatin A]
How it was run: as §1

[1] = compound: CNC(=O)C1=CC=CC=C1NC2=NC(=NC=C2Cl)NC3=C(C=C(C=C3)N4CCOCC4)OC
How it was run: as §1

[2] = compound: CNc1nc(-c2ccc3c(N)n[nH]c3c2)cc(N2C[C@@H](C(=O)NC3CCCCC3)CC[C@H]2C)n1
How it was run: as §1

alisertib = compound: COc1cc(Nc2ncc3c(n2)-c2ccc(Cl)cc2C(c2c(F)cccc2OC)=NC3)ccc1C(=O)O [alisertib]
How it was run: as §1

gefitinib = compound: COc1cc2ncnc(Nc3ccc(F)c(Cl)c3)c2cc1OCCCN1CCOCC1 [gefitinib]
How it was run: as §1

pictilisib = compound: CS(=O)(=O)N1CCN(Cc2cc3nc(-c4cccc5[nH]ncc45)nc(N4CCOCC4)c3s2)CC1 [pictilisib]
How it was run: as §1

crizotinib = compound: C[C@@H](Oc1cc(-c2cnn(C3CCNCC3)c2)cnc1N)c1c(Cl)ccc(F)c1Cl [crizotinib]
How it was run: as §1

[3] = compound: C[C@H](C1=CC=C(C=C1)C(=O)NC2=C3C=CNC3=NC=C2)N
How it was run: as §1

duvelisib = compound: C[C@H](Nc1ncnc2nc[nH]c12)c1cc2cccc(Cl)c2c(=O)n1-c1ccccc1 [duvelisib]
How it was run: as §1

gandotinib = compound: Cc1cc(Nc2cc(CN3CCOCC3)c3nc(C)c(Cc4ccc(Cl)cc4F)n3n2)n[nH]1 [gandotinib]
How it was run: as §1

doramapimod = compound: Cc1ccc(-n2nc(C(C)(C)C)cc2NC(=O)Nc2ccc(OCCN3CCOCC3)c3ccccc23)cc1 [doramapimod]
How it was run: as §1

bafetinib = compound: Cc1ccc(NC(=O)c2ccc(CN3CC[C@H](N(C)C)C3)c(C(F)(F)F)c2)cc1Nc1nccc(-c2cncnc2)n1 [bafetinib]
How it was run: as §1

[4] = compound: Cc1cccc(CC(=O)N2CCc3c2ccc(-c2cn(C)c4ncnc(N)c24)c3F)n1
How it was run: as §1

defactinib = compound: CNC(=O)c1ccc(Nc2ncc(C(F)(F)F)c(NCc3nccnc3N(C)S(C)(=O)=O)n2)cc1 [defactinib]
How it was run: as §1

encorafenib = compound: COC(=O)N[C@@H](C)CNc1nccc(-c2cn(C(C)C)nc2-c2cc(Cl)cc(NS(C)(=O)=O)c2F)n1 [encorafenib]
How it was run: as §1

[5] = compound: COC(=O)[C@H](CCSC)NC(=O)C1=C(C=C(C=C1)NC[C@H](CS)N)C2=CC=CC=C2
How it was run: as §1

[6] = compound: COc1cc2nc(-c3cc(F)ccc3O)nc(N[C@@H]3CNC[C@H]3C(C)(C)O)c2cc1OC
How it was run: as §1

lapatinib = compound: CS(=O)(=O)CCNCc1ccc(-c2ccc3ncnc(Nc4ccc(OCc5cccc(F)c5)c(Cl)c4)c3c2)o1 [lapatinib]
How it was run: as §1

tozasertib = compound: Cc1cc(Nc2cc(N3CCN(C)CC3)nc(Sc3ccc(NC(=O)C4CC4)cc3)n2)n[nH]1 [tozasertib]
How it was run: as §1

Measured: log2 fold change

NAB1 (UniProt Q13506)
inactive: alvocidib 0.067 | Tubastatin A -0.019 | [1] -0.094 | [2] -0.07 | alisertib -0.055 | gefitinib 0.05 | pictilisib -0.023 | crizotinib -0.016 | [3] -0.165 | duvelisib 0.068 | gandotinib 0.063 | doramapimod 0.075 | bafetinib -0.224 | [4] 0.026

NCBP2AS2 (UniProt Q69YL0)
inactive: alvocidib 0.054 | Tubastatin A 0.178 | [1] -0.059 | defactinib -0.125 | [2] -0.093 | encorafenib 0.003 | [5] 0.201 | alisertib 0.06 | [6] -0.241 | gefitinib -0.084 | lapatinib -0.033 | pictilisib -0.08 | crizotinib -0.07 | [3] 0.062 | duvelisib -0.034 | gandotinib -0.142 | tozasertib 0.086 | doramapimod 0.031 | bafetinib -0.271 | [4] -0.051

NADK2 (UniProt Q4G0N4)
active: [5] 0.3
inactive: alvocidib -0.025 | Tubastatin A 0.106 | [1] -0.036 | defactinib 0 | [2] 0.04 | encorafenib -0.052 | alisertib -0.022 | [6] -0.004 | gefitinib -0.009 | lapatinib 0.02 | pictilisib -0.028 | crizotinib -0.005 | [3] -0.04 | duvelisib 0.03 | gandotinib 0.004 | tozasertib 0.012 | doramapimod -0.002 | bafetinib 0.01 | [4] 0.017

MXRA7 (UniProt P84157)
inactive: alvocidib -0.002 | Tubastatin A -0.056 | [1] -0.052 | defactinib -0.239 | [2] 0.131 | encorafenib 0.051 | [5] -0.028 | alisertib -0.19 | [6] -0.009 | gefitinib 0.177 | lapatinib -0.039 | crizotinib 0.103 | [3] -0.149 | duvelisib 0.056 | gandotinib -0.008 | tozasertib -0.05 | doramapimod 0.041 | [4] 0.096

MYL6 (UniProt G3V1V0)
inactive: alvocidib -0.009 | Tubastatin A 0.073 | [1] -0.005 | defactinib -0.013 | [2] 0.02 | encorafenib 0.162 | [5] -0.161 | alisertib 0.023 | [6] 0.001 | gefitinib -0.169 | lapatinib 0.049 | crizotinib 0.029 | [3] 0 | duvelisib 0.023 | gandotinib 0.014 | tozasertib 0.03 | doramapimod 0.055 | [4] 0.049

NACC2 (UniProt Q96BF6)
inactive: alvocidib 0.022 | Tubastatin A 0.053 | [1] -0.007 | defactinib 0.088 | [2] -0.287 | encorafenib -0.046 | [5] -0.015 | alisertib 0.029 | gefitinib 0.112 | crizotinib -0.006 | [3] 0.038 | duvelisib -0.002 | gandotinib 0.129 | tozasertib 0.088 | doramapimod 0.083 | [4] 0.021

NAA20 (UniProt P61599)
inactive: alvocidib 0.055 | Tubastatin A 0.002 | [1] 0.05 | defactinib 0.04 | [2] 0.004 | encorafenib 0.03 | [5] 0.103 | alisertib 0.005 | [6] 0.009 | gefitinib -0.099 | lapatinib 0.006 | pictilisib -0.058 | crizotinib -0.074 | [3] 0.006 | duvelisib 0.04 | gandotinib -0.04 | tozasertib -0.027 | doramapimod 0.038 | bafetinib -0.025 | [4] -0.021

NBR1 (UniProt Q14596)
inactive: alvocidib 0.081 | Tubastatin A -0.066 | [1] 0.133 | defactinib 0.011 | [2] -0.034 | encorafenib 0.106 | [5] -0.167 | [6] -0.039 | lapatinib -0.002 | pictilisib 0.026 | crizotinib -0.019 | [3] -0.02 | duvelisib 0.082 | gandotinib -0.109 | tozasertib 0.384 | doramapimod -0.082 | bafetinib 0.009 | [4] 0.143
